# Laboratory results taken from publication PMC11087051 (eLife, 2024).
# Plain letter strings leave the end groups untold. No end group written: not given here.
# Test: peptide made by a vendor
# Settings: whole synthesis
row,Substance,purity (crude or final not stated)
1,APGLWamide,90.7%
2,APPGNGEGEAGFIPWFS-NH2,91.5%
3,APRGGRDAPRG-NH2,90.1%
4,APRGGRSLLDLLAAPRG-NH2,94.6%
5,EIQPGNMKVWSDPF,89.7%
6,FFKAamide,95.1%
7,FLRNamide,95.2%
8,FPPGFHRP-NH2,87.1%
9,FYRVamide,96.9%
10,GPPGLW-NH2,96.1%
11,GPPM(ox)IKIPVRHamide,98.1%
12,GPPMIKIPVRH-NH2,95.9%
13,GPPPIYLPVRP-NH2,97.9%
14,GPPQGLRW-NH2,97%
15,GPRGGRATEFGPRG-NH2,92.5%
16,GPRGGREVNLEGPRG-NH2,93.6%
17,GPRGGRSYDGPRG-NH2,92%
18,GPRGamide,90.6%
19,GYYRDNIQETRQYLDPRP-NH2,97.4%
20,IPPQGFRFSQW-NH2,98.7%
21,IPPQGLRFNQW-NH2,96.2%

row,Substance,purity (crude or final not stated)
1,KGIKQEEIQPGNMKVWSDPF,91.6%
2,LPPRFGGQI-NH2,85.4%
3,MPEQDANPQTRFD-NH2,97.6%
4,NPPIDLGPAYFHIR-NH2,91.9%
5,NPPQPPFRIPI-NH2,88.7%
6,QPGNMKVWSDPF,85%
7,RSNRVVIHTGANPTMAPLRIPF-NH2,85.2%
8,SPKPPGLW-NH2,96.5%
9,SPPQWKLDSSPPQW,93%
10,SPWSCSLRP-NH2,95.4%
11,SPWSYSLRP-NH2,98.8%
12,TPPSNI-NH2,97.4%
13,WPPRPamide,97.5%
14,YPPFLELGQPSYFHIR-NH2,99.3%
15,YPPLNTV-NH2,95.3%
16,pyrQAGAPGLWamide,89.9%
17,pyrQAGPPGLWamide,90.1%
18,pyrQAKLNKGWESANYDKGWA,95.7%
19,pyrQAMQWGHKGWA,89.9%
20,pyrQC(dis)PPGLWGC(dis),96%
21,pyrQCPPGLWGC,87.9%

row,Substance,purity (crude or final not stated)
1,pyrQDAFLPKPRPamide,98.5%
2,pyrQETDGESLKKAEEEFV,89.2%
3,pyrQGGLRWamide,92.6%
4,pyrQGLMFRPamide,95.8%
5,pyrQGLRWamide,98.8%
6,pyrQGRFGREDQGRFamide,87.3%
7,pyrQGRFamide,97.6%
8,pyrQITRFamide,97%
9,pyrQLFRPamide,90%
10,pyrQLIFRPamide,98.9%
11,pyrQLPSVSEVSENDVASLLRE,95.7%
12,pyrQMPNMVPFHamide,89%
13,pyrQNGHC(dis)PPGLWLC(dis)KANTRL,92.6%
14,pyrQNGHCPPGLWLCKANTRL,95.9%
15,pyrQPPFRIPIamide,97.5%
16,pyrQPPLDLGPAYFHIRamide,97.2%
17,pyrQPPLSHLSamide,97.9%
18,pyrQPPYLDLGEPSFFHIRamide,98.2%
19,pyrQPPYLDLTPAYFHIRamide,96.1%
20,pyrQPYFHTDNSPNRFamide,96.7%
21,pyrQYLDPRPamide,94.2%
